Some of the results follow.
How the values were obtained:
Assay in all cases: glycan array binding signal (z-score within array); higher = stronger binding
Details in all cases: glycan notation: IUPAC condensed, linker removed
[1] = biological target: Gal(a1-3)[Gal(a1-4)]Gal(b1-4)GlcNAc
Outline: (§1)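 Glycan array data were curated from 3228 arrays in the Consortium for Functional Glycomics database and kept only where the protein sequence was available. Glycan names were converted to IUPAC-condensed notation, and columns mapping to the same glycan were averaged. The binding signal is a within-array Z-score, averaged across arrays of the same protein sequence at different concentrations or buffers and across linkers. Negative Z-scores can be read as non-binding.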

[2] = biological target: Gal(a1-4)Gal(b1-3)GlcNAc(b1-2)Man(a1-3)[Gal(a1-4)Gal(b1-3)GlcNAc(b1-2)Man(a1-6)]Man(b1-4)GlcNAc(b1-4)GlcNAc
Outline: as §1

Gal(a1-4)Gal(b1-4)Glc = biological target: Gal(a1-4)Gal(b1-4)Glc
Outline: as §1

Gal(a1-4)Gal(b1-4)GlcNAc = biological target: Gal(a1-4)Gal(b1-4)GlcNAc
Outline: as §1

[3] = biological target: Gal(a1-4)Gal(b1-4)GlcNAc(b1-2)Man(a1-3)[Gal(a1-4)Gal(b1-4)GlcNAc(b1-2)Man(a1-6)]Man(b1-4)GlcNAc(b1-4)GlcNAc
Outline: as §1

[4] = biological target: Gal(a1-4)Gal(b1-4)GlcNAc(b1-3)Gal(b1-4)Glc
Outline: as §1

Gal(a1-4)GlcNAc = biological target: Gal(a1-4)GlcNAc
Outline: as §1

Gal(a1-6)Glc = biological target: Gal(a1-6)Glc
Outline: as §1

Gal(b1-2)Gal = biological target: Gal(b1-2)Gal
Outline: as §1

Gal(b1-3)Gal = biological target: Gal(b1-3)Gal
Outline: as §1

Gal(b1-3)Gal(b1-4)GlcNAc = biological target: Gal(b1-3)Gal(b1-4)GlcNAc
Outline: as §1

Gal(b1-3)GalNAc = biological target: Gal(b1-3)GalNAc
Outline: as §1

[5] = biological target: Gal(b1-3)GalNAc(a1-3)[Fuc(a1-2)]Gal(b1-4)Glc
Outline: as §1

[6] = biological target: Gal(b1-3)GalNAc(a1-3)[Fuc(a1-2)]Gal(b1-4)GlcNAc
Outline: as §1

Gal(b1-3)GalNAc(b1-3)Gal = biological target: Gal(b1-3)GalNAc(b1-3)Gal
Outline: as §1

[7] = biological target: Gal(b1-3)GalNAc(b1-3)Gal(a1-4)Gal(b1-4)Glc
Outline: as §1

[8] = biological target: Gal(b1-3)GalNAc(b1-4)Gal(b1-4)Glc
Outline: as §1

[9] = biological target: Gal(b1-3)GalNAc(b1-4)[Neu5Ac(a2-3)]Gal(b1-4)Glc
Outline: as §1

Gal(b1-3)GlcNAc = biological target: Gal(b1-3)GlcNAc
Outline: as §1

[10] = biological target: Gal(b1-3)GlcNAc(a1-3)Gal(b1-4)GlcNAc
Outline: as §1

[11] = biological target: Gal(b1-3)GlcNAc(a1-6)Gal(b1-4)GlcNAc
Outline: as §1

Gal(b1-3)GlcNAc(b1-2)Man = biological target: Gal(b1-3)GlcNAc(b1-2)Man
Outline: as §1

[12] = biological target: Gal(b1-3)GlcNAc(b1-2)Man(a1-3)[Gal(b1-3)GlcNAc(b1-2)Man(a1-6)]Man(b1-4)GlcNAc(b1-4)GlcNAc
Outline: as §1

[13] = biological target: Gal(b1-3)GlcNAc(b1-2)Man(a1-3)[Gal(b1-3)GlcNAc(b1-2)Man(a1-6)]Man(b1-4)GlcNAc(b1-4)[Fuc(a1-6)]GlcNAc
Outline: as §1

[14] = biological target: Gal(b1-3)GlcNAc(b1-2)Man(a1-3)[GlcNAc(b1-4)][Gal(b1-3)GlcNAc(b1-2)Man(a1-6)]Man(b1-4)GlcNAc(b1-4)GlcNAc
Outline: as §1

[15] = biological target: Gal(b1-3)GlcNAc(b1-2)[Gal(b1-3)GlcNAc(b1-6)]Man(a1-6)[Gal(b1-3)GlcNAc(b1-2)Man(a1-3)]Man(b1-4)GlcNAc(b1-4)GlcNAc
Outline: as §1

[16] = biological target: Gal(b1-3)GlcNAc(b1-3)Gal(b1-3)GlcNAc
Outline: as §1

[17] = biological target: Gal(b1-3)GlcNAc(b1-3)Gal(b1-4)Glc
Outline: as §1

[18] = biological target: Gal(b1-3)GlcNAc(b1-3)Gal(b1-4)GlcNAc
Outline: as §1

[19] = biological target: Gal(b1-3)GlcNAc(b1-3)Gal(b1-4)GlcNAc(b1-2)Man(a1-3)[Gal(b1-3)GlcNAc(b1-3)Gal(b1-4)GlcNAc(b1-2)Man(a1-6)]Man(b1-4)GlcNAc(b1-4)GlcNAc
Outline: as §1

[20] = biological target: Gal(b1-3)GlcNAc(b1-3)Gal(b1-4)GlcNAc(b1-2)[Gal(b1-3)GlcNAc(b1-3)Gal(b1-4)GlcNAc(b1-6)]Man(a1-6)[Gal(b1-3)GlcNAc(b1-3)Gal(b1-4)GlcNAc(b1-2)Man(a1-3)]Man(b1-4)GlcNAc(b1-4)[Fuc(a1-6)]GlcNAc
Outline: as §1

[21] = biological target: Gal(b1-3)GlcNAc(b1-3)Gal(b1-4)GlcNAc(b1-3)Gal(b1-4)GlcNAc(b1-2)[Gal(b1-3)GlcNAc(b1-3)Gal(b1-4)GlcNAc(b1-3)Gal(b1-4)GlcNAc(b1-6)]Man(a1-6)[Gal(b1-3)GlcNAc(b1-3)Gal(b1-4)GlcNAc(b1-3)Gal(b1-4)GlcNAc(b1-2)Man(a1-3)]Man(b1-4)GlcNAc(b1-4)[Fuc(a1-6)]GlcNAc
Outline: as §1

[22] = biological target: Gal(b1-3)GlcNAc(b1-3)Gal(b1-4)GlcNAc(b1-6)[Gal(b1-3)GlcNAc(b1-3)]Gal(b1-4)Glc
Outline: as §1

[23] = biological target: Gal(b1-3)GlcNAc(b1-3)Gal(b1-4)[Fuc(a1-3)]GlcNAc
Outline: as §1

[24] = biological target: Gal(b1-3)GlcNAc(b1-3)Gal(b1-4)[Fuc(a1-3)]GlcNAc(b1-6)[Gal(b1-3)GlcNAc(b1-3)]Gal(b1-4)Glc
Outline: as §1

[25] = biological target: Gal(b1-3)GlcNAc(b1-3)GalNAc
Outline: as §1

[26] = biological target: Gal(b1-3)GlcNAc(b1-6)Gal(b1-4)GlcNAc
Outline: as §1

[27] = biological target: Gal(b1-3)GlcNAc(b1-6)GalNAc
Outline: as §1

B1: Sp8391B-bot-388-20-388 (Bacteroides ovatus) (protein)
chain: GCQNNDENEQHYDNKLFISASNFTKEILFKAGDTNVETGLSVAIAKPEEHDIKVTMSPAPELLSTYKLAYYDETAVLLSEEHYSMPETSTTIKSGSIVSPELPIEFINTGELDIKTTYVLPVTIKSVEGIGVLQSAKTYYYVFRGASLINVVCNISRNRAYPDFKNDSKFNNLTENTMEILFKANSFPNTLNTLMGIESNYLLRIGDATIPNNQLQVATSVNNCTSADLQLESGKWYHVAVAFNKGNVKVYINGVEKLSGSTGKSSVSLGAKHTNEEDGSRCFWVGYSYKDDRYFDGVVSEVRIWNRALTAEEIQATNHFYTIEPESEGLIAYWKFDEGSGTVAKDYSVSGYDLTIEKEPKWESVSLPQ
- glycan array binding signal (z-score) [1]: -0.251
- glycan array binding signal (z-score) [2]: 2.6
- glycan array binding signal (z-score) (Gal(a1-4)Gal(b1-4)Glc): 0.623
- glycan array binding signal (z-score) (Gal(a1-4)Gal(b1-4)GlcNAc): 0.049
- glycan array binding signal (z-score) [3]: 0.691
- glycan array binding signal (z-score) [4]: -0.875
- glycan array binding signal (z-score) (Gal(a1-4)GlcNAc): -0.289
- glycan array binding signal (z-score) (Gal(a1-6)Glc): 0.597
- glycan array binding signal (z-score) (Gal(b1-2)Gal): 0.024
- glycan array binding signal (z-score) (Gal(b1-3)Gal): -0.179
- glycan array binding signal (z-score) (Gal(b1-3)Gal(b1-4)GlcNAc): -0.515
- glycan array binding signal (z-score) (Gal(b1-3)GalNAc): 0.027
- glycan array binding signal (z-score) [5]: 0.361
- glycan array binding signal (z-score) [6]: -0.249
- glycan array binding signal (z-score) (Gal(b1-3)GalNAc(b1-3)Gal): -0.301
- glycan array binding signal (z-score) [7]: -0.745
- glycan array binding signal (z-score) [8]: 0.437
- glycan array binding signal (z-score) [9]: -0.428
- glycan array binding signal (z-score) (Gal(b1-3)GlcNAc): -0.664
- glycan array binding signal (z-score) [10]: -1.02
- glycan array binding signal (z-score) [11]: -0.85
- glycan array binding signal (z-score) (Gal(b1-3)GlcNAc(b1-2)Man): 0.601
- glycan array binding signal (z-score) [12]: 3.77
- glycan array binding signal (z-score) [13]: 0.143
- glycan array binding signal (z-score) [14]: 0.252
- glycan array binding signal (z-score) [15]: 0.113
- glycan array binding signal (z-score) [16]: -0.653
- glycan array binding signal (z-score) [17]: 0.105
- glycan array binding signal (z-score) [18]: -0.661
- glycan array binding signal (z-score) [19]: 1.6
- glycan array binding signal (z-score) [20]: -0.16
- glycan array binding signal (z-score) [21]: -0.127
- glycan array binding signal (z-score) [22]: 0.879
- glycan array binding signal (z-score) [23]: 0.799
- glycan array binding signal (z-score) [24]: 12.8
- glycan array binding signal (z-score) [25]: -0.114
- glycan array binding signal (z-score) [26]: -0.02
- glycan array binding signal (z-score) [27]: 0.299

From the supplement of paper PMC8728848
